Patent US11040959B2, “Diprovocims: a new and potent class of TLR agonists” (The Scripps Research Institute, priority 2016, dated 2021)
At least one structure is not confirmed: it was looked up by name or label, or the drawing left a doubt.

Legend:
[1] = tested on: mTLRs and downstream signaling proteins; test: TNF-α release using macrophages from mice with disabling germline mutations or knockouts of TLR pathway genes; type: cell-based, mouse; conditions: macrophages of mutant or knockout mice
[2] = tested on: NF-κβ, JNK, and p38 signaling pathway; test: activation of signaling pathways in THP-1 cells; type: cell-based, human
[3] = tested on: NF-κβ, JNK, and p38 signaling pathway; test: activation of signaling pathways in mouse macrophages; type: cell-based
C57BL/6 mice = test: in vivo adjuvant activity, immunization with OVA, serum OVA-specific IgG by ELISA; parameters: species or system mouse; conditions: for adjuvant activity in vivo: mice, 0.25-5 mg/kg i.m., co-injected with ovalbumin, serum OVA-specific IgG after 21 days
B16-F10 cells = test: IL-6 production in B16-F10 cells in vitro; type: cell-based

Question: What does the source list for O=C(N[C@H]1C[C@@H]1c1ccccc1)[C@@H]1CN(C(=O)c2ccc(C(=O)N3C[C@@H](C(=O)N[C@H]4C[C@@H]4c4ccccc4)[C@H](C(=O)N[C@H]4C[C@@H]4c4ccccc4)C3)cc2)C[C@H]1C(=O)N[C@H]1C[C@@H]1c1ccccc1 [Compound 3, (3S,3′S,4S,4′S)-1,1′-Terephthaloylbis(N^3,N^4-bis((1S,2R)-2-phenylcyclopropyl)pyrrolidine-3,4-dicarboxamide)]?
Answer: dependence on TLR6 [1]: independent of TLR6; dependence on all other TLRs [1]: independent of all other TLRs; activation of NF-κβ, JNK, and p38 signaling pathway [2]: activates; activation of NF-κβ, JNK, and p38 signaling pathway [3]: activates; adjuvant activity in TLR2 KO mice (C57BL/6 mice; TLR2 KO mice): ineffective; adjuvant activity in vivo (C57BL/6 mice): dose-dependent adjuvant activity; adjuvant activity in vivo (C57BL/6 mice; listed as Diprovocim-1): potent adjuvant activity; adjuvant activity in vivo (C57BL/6 mice; listed as diprovocim-1): potent TLR2-dependent adjuvant activity; IL-6 production (B16-F10 cells): can induce IL-6 production
